Assay results published in publication PMC4172784.
Results are given in words; binding and its absence hold for the method and conditions named. In cells and extracts the contact can be indirect.

The chains behind the UniProt entries cited, without tags or fusion partners. Where a name states a change or a piece, a line headed by the entry shows the natural chain unless it says otherwise. A line that says so, or that is headed by a name, gives the form on record, which may keep a tag or linker.
UniProt P19563: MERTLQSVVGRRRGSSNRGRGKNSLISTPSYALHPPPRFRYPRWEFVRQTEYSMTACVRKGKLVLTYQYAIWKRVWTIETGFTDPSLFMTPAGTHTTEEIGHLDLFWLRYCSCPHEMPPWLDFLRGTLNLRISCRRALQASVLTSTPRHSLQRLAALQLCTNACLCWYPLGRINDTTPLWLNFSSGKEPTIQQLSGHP
Flag-tagged btCBF-β (VR-btCBF-β-flag) (E1B9S8, form named): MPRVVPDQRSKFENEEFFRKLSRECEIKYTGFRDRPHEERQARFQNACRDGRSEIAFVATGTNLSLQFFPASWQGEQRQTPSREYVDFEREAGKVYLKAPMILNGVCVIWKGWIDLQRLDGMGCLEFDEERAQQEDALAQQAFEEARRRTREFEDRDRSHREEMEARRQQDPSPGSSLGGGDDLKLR

Target: cmyc-tagged BIV Vif (VR-BIV Vif-cmyc) (bovine immunodeficiency virus (BIV BIM127)) (UniProt P19563)
Assay: co-IP; 293T cells co-transfected with cmyc-tagged Vif and Flag-tagged CBF-β; lysate with anti-cmyc antibody 1 h, then Protein G-agarose, 4°C, 3 h; immunoblot with anti-cmyc and anti-Flag

## Flag-tagged btCBF-β (VR-btCBF-β-flag) (from UniProt E1B9S8 1-187)
  binding: no binding
